According to paper PMC12206918:
No constants are given. Whether binding was seen depends on the method and setting. In cells and extracts the contact can be indirect. Some binding calls cover weakened binding; strength is not graded here. For some assays here: Sequences can lack the tags named with a protein.

The chains behind the UniProt entries cited, without tags or fusion partners. Residues count along the entry.
UniProt P80188, residues 21-198: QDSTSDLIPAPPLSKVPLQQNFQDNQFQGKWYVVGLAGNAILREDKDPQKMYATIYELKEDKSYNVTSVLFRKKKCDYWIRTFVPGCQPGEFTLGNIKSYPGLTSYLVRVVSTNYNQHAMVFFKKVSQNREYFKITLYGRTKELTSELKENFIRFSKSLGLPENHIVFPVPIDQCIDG

T1: Fn14-3FLAG overexpressed in HaCaT cells (LV-hTNFRSF12A-3FLAG-OE) (human) (UniProt Q9NP84)
T1 sequence: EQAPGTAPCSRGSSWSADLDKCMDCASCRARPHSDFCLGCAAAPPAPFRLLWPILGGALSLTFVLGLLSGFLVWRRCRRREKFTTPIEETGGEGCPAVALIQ

T2: Fn14 (TNFRSF12A), endogenous in HaCaT cells (human (endogenous in HaCaT)) (UniProt Q9NP84)
T2 sequence: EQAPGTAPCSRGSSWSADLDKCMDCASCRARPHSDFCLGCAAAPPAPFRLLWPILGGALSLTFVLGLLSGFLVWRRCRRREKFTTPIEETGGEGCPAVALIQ

B1: recombinant mouse LCN2 (rmLCN2) (protein, UniProt P11672 21-200)
chain: QDSTQNLIPAPSLLTVPLQPDFRSDQFRGRWYVVGLAGNAVQKKTEGSFTMYSTIYELQENNSYNVTSILVRDQDQGCRYWIRTFVPSSRAGQFTLGNMHRYPQVQSYNVQVATTDYNQFAMVFFRKTSENKQYFKITLYGRTKELSPELKERFTRFAKSLGLKDDNIIFSVPTDQCIDN

Columns and labels:
[1] = target: T1, Fn14-3FLAG overexpressed in HaCaT cells (LV-hTNFRSF12A-3FLAG-OE) (human); test: co-IP; HaCaT cells overexpressing Fn14-3FLAG (lentivirus), stimulated with LCN2; Fn14 enriched with anti-Flag magnetic beads; blot for LCN2 and Fn14; only the binder purified
[2] = target: T2, Fn14 (TNFRSF12A), endogenous in HaCaT cells (human (endogenous in HaCaT)); test: co-IP; HaCaT cells stimulated with rmLCN2 for 48 h; total protein incubated with mouse anti-human Fn14 antibody on protein A/G magnetic beads; blot for LCN2 and Fn14; only the binder purified

Row | Molecule | binding [1] | binding [2]
1 | LCN2 added to Fn14-3FLAG-overexpressing HaCaT cells (from UniProt P80188 21-198) | binds | 
2 | B1 |  | binds
